Results deposited as PubChem BioAssay AID504804 (Drosophila RNAi Screening Center, 2011)

- Assay: 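Fly genes whose loss lessens doxorubicin-driven cell death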 (primary screen)
- Cell system: Drosophila Kc cells
- Reagents: long dsRNA against Drosophila genes, 0.5 µg dsRNA per well
- Duration: 96 h (48 h knock-down, then 48 h drug)
- Challenge: doxorubicin 5 µg/ml for 48 h, added 48 h after dsRNA
- Measurement: 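Viability measured as cellular ATP by luminescence after 48 h knock-down then 48 h doxorubicin at 5 µg/ml; unnormalised plate counts for each replicate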
- Scale: raw ATP luminescence: higher = more viable cells, protection from doxorubicin
- Hit rule: 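z-score of 2 or more over plate mean in both duplicates, retained only when retests and separate dsRNAs confirm the protection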
In all, the deposit lists about 19,000 reagents; this is an unselected part of those with a known target gene and a result. Of all reagents, 47 (0.25%) got an active call. 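Signals are raw, not normalised; exact z-scores behind calls not deposited; actives needed confirmation, so some wells reaching 2 SD are inactive.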 Unmarked entries are inactive. Names joined by + are all predicted targets of the reagent.

For Ciao1 [DRSC06170] the deposit lists raw ATP luminescence, replicate 1 = 60310; raw ATP luminescence, replicate 2 = 70167.
TwdlH (TweedleH) [DRSC14735] gave raw ATP luminescence, replicate 1 = 41370; raw ATP luminescence, replicate 2 = 43240.
Depletion of CG31673 [DRSC03207] gave: raw ATP luminescence, replicate 1 = 76643; raw ATP luminescence, replicate 2 = 72380.
For CG15252 [DRSC17981], the values are raw ATP luminescence, replicate 1 = 2.93e5; raw ATP luminescence, replicate 2 = 3.10e5.
Depletion of CG7675 [DRSC16280] came out at: raw ATP luminescence, replicate 1 = 43300; raw ATP luminescence, replicate 2 = 44180.
After knock-down of EMC3 (ER membrane protein complex subunit 3) [DRSC02989], the screen gave raw ATP luminescence, replicate 1 = 36713; raw ATP luminescence, replicate 2 = 51453.
CG16820 [DRSC02522] showed raw ATP luminescence, replicate 1 = 99443; raw ATP luminescence, replicate 2 = 71567.
Knock-down of Rbcn-3A (Rabconnectin-3A) [DRSC18314] resulted in: raw ATP luminescence, replicate 1 = 44340; raw ATP luminescence, replicate 2 = 42370.
After knock-down of snoRNA:Me28S-C3227a + snoRNA:Me18S-A1061 + snoRNA:Me28S-C3227b + 7 more [DRSC05497] the results were raw ATP luminescence, replicate 1 = 1.00e5; raw ATP luminescence, replicate 2 = 1.08e5.
After knock-down of obst-F (obstructor-F) [DRSC10805], the screen gave raw ATP luminescence, replicate 1 = 65420; raw ATP luminescence, replicate 2 = 64030.
CG13771 [DRSC02277] scored raw ATP luminescence, replicate 1 = 28413; raw ATP luminescence, replicate 2 = 25060.
Knock-down of CG8840 [DRSC00713] came out at: raw ATP luminescence, replicate 1 = 24067; raw ATP luminescence, replicate 2 = 23860.
Knock-down of CG33060 [DRSC09939] came out at: raw ATP luminescence, replicate 1 = 49010; raw ATP luminescence, replicate 2 = 40613.
After knock-down of CG11345 [DRSC08176], the record shows raw ATP luminescence, replicate 1 = 77260; raw ATP luminescence, replicate 2 = 81077.
Depletion of CG13002 [DRSC19521] gave: raw ATP luminescence, replicate 1 = 3.22e5; raw ATP luminescence, replicate 2 = 3.11e5.
CG9876 [DRSC04586] showed raw ATP luminescence, replicate 1 = 56280; raw ATP luminescence, replicate 2 = 53817.
Against GstD8 (Glutathione S transferase D8) [DRSC16689], the entry reads raw ATP luminescence, replicate 1 = 61857; raw ATP luminescence, replicate 2 = 36303.
For bwa (brain washing) [DRSC01749], the values are raw ATP luminescence, replicate 1 = 56847; raw ATP luminescence, replicate 2 = 52880.
Depletion of bwa (brain washing) [DRSC02310] came out at: raw ATP luminescence, replicate 1 = 49300; raw ATP luminescence, replicate 2 = 48773.

Records above whose gene name begins with B or b:
bwa (brain washing) [DRSC01749] — raw ATP luminescence, replicate 1 = 56847; raw ATP luminescence, replicate 2 = 52880
bwa (brain washing) [DRSC02310] — raw ATP luminescence, replicate 1 = 49300; raw ATP luminescence, replicate 2 = 48773
